Columns and labels:
[1] = tested on: P. falciparum Dd2; experiment: P. falciparum growth inhibition assay, [3H] hypoxanthine incorporation, Dd2 line; format: cell-based; details: Plasmodium falciparum, DD2, read-out: P. falciparum IC50 Dd2
[2] = tested on: T. b. brucei 427 bloodstream trypanosomes; experiment: T. b. brucei growth inhibition assay; format: cell-based; details: Trypanosoma brucei, 48 h, read-out: T. b. brucei IC50
[3] = tested on: HEK293 cells; experiment: HEK293 cytotoxicity assay; format: cell-based; details: Homo sapiens, HEK293, 48 h, read-out: Mammalian cell IC50 HEK 293
[4] = tested on: Neonatal foreskin fibroblast (NFF) cells; experiment: NFF cytotoxicity assay; format: cell-based; details: Homo sapiens, 72 h, read-out: Mammalian cell IC50 NFF
[5] = tested on: asexual-stage P. falciparum; experiment: P. falciparum asexual-stage growth inhibition, line not specified or both lines; format: cell-based; details: Plasmodium falciparum, in Homo sapiens, read-out: P. falciparum IC90
[6] = tested on: early stage gametocytes; details: read-out: Early stage gametocytes IC50; ref Trenholme et al., 2014; cited from earlier work

O=C(CCCCCCC(=O)Nc1ccccc1)NO [Vorinostat, suberoylanilide hydroxamic acid]
IC50 [1]: 190 nM | IC50 [2]: 9.03 µM | IC50 [3]: 5.17 µM | IC50 [4]: 5.5 µM | IC90 [5]: 240 nM | IC50 [6]: 1410 nM

— paper PMC4506969 (International Journal for Parasitology: Drugs and Drug …, 2015)
